These are yes or no findings as the source states them, for the method shown. For some assays here: In cells and extracts the contact can be indirect. Some results given as binding are weak or reduced against the parent protein; the word gives no strength. Tags and fused reporters may be left off the sequences shown.

The target in test [1] is T1, HA-epitope tagged SIC (Arabidopsis thaliana) (UniProt Q9SB47).
T1 sequence: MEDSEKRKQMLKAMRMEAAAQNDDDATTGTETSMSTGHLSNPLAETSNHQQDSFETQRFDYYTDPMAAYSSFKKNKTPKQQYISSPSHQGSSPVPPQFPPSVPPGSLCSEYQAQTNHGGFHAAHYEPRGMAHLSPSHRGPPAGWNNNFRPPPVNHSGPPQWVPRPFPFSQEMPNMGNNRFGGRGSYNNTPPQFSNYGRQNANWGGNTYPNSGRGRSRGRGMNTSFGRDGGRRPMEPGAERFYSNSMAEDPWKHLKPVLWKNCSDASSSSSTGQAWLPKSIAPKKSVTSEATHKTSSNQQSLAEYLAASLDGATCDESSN
The test can be described thus: co-IP.

The target of test [2] is T2, GAL4-DNA binding domain-DBR1 fusion (RNA DEBRANCHING ENZYME 1) (Arabidopsis thaliana) (UniProt Q94K01).
T2 sequence: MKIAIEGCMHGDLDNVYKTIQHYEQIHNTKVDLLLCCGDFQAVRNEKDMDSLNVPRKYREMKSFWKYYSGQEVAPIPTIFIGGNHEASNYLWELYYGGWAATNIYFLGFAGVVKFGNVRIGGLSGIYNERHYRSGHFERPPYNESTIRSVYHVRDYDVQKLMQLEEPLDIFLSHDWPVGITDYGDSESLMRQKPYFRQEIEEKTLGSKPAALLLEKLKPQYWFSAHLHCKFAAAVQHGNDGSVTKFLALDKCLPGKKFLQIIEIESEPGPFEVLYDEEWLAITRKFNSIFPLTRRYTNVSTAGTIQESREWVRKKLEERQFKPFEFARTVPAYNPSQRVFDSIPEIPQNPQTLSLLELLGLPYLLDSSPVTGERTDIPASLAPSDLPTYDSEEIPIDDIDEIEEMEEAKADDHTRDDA
Kind of test: two-hybrid.

B1: cMyc-epitope tagged DBR1 (enzyme, UniProt Q94K01 1-418)
chain: MKIAIEGCMHGDLDNVYKTIQHYEQIHNTKVDLLLCCGDFQAVRNEKDMDSLNVPRKYREMKSFWKYYSGQEVAPIPTIFIGGNHEASNYLWELYYGGWAATNIYFLGFAGVVKFGNVRIGGLSGIYNERHYRSGHFERPPYNESTIRSVYHVRDYDVQKLMQLEEPLDIFLSHDWPVGITDYGDSESLMRQKPYFRQEIEEKTLGSKPAALLLEKLKPQYWFSAHLHCKFAAAVQHGNDGSVTKFLALDKCLPGKKFLQIIEIESEPGPFEVLYDEEWLAITRKFNSIFPLTRRYTNVSTAGTIQESREWVRKKLEERQFKPFEFARTVPAYNPSQRVFDSIPEIPQNPQTLSLLELLGLPYLLDSSPVTGERTDIPASLAPSDLPTYDSEEIPIDDIDEIEEMEEAKADDHTRDDA
On to B1, for which the binding entry in test [1] is reported as “binds”.

B2: GAL4 Activation Domain-SIC fusion (SICKLE) (protein, UniProt Q9SB47 1-319)
chain: MEDSEKRKQMLKAMRMEAAAQNDDDATTGTETSMSTGHLSNPLAETSNHQQDSFETQRFDYYTDPMAAYSSFKKNKTPKQQYISSPSHQGSSPVPPQFPPSVPPGSLCSEYQAQTNHGGFHAAHYEPRGMAHLSPSHRGPPAGWNNNFRPPPVNHSGPPQWVPRPFPFSQEMPNMGNNRFGGRGSYNNTPPQFSNYGRQNANWGGNTYPNSGRGRSRGRGMNTSFGRDGGRRPMEPGAERFYSNSMAEDPWKHLKPVLWKNCSDASSSSSTGQAWLPKSIAPKKSVTSEATHKTSSNQQSLAEYLAASLDGATCDESSN
On to B2, for which, in test [2], the binding result was “binds”.

The record behind these values is doi:10.1101/2023.07.25.550414.
